Legend:
[1] = Autogenous ignition temperature, ASTM G72; settings: ASTM method G72
[2] = Ignition sensitivity to mechanical impact in liquid oxygen, ASTM G86; settings: ASTM G86 pass/fail
[3] = Coated metal coupon cleaning, gravimetric; settings: in words
Description: (§1) A sample comprising 25 volume percent (A.) 4-bromo-3-chloro-3,4,4-trifluoro-1-butene and 75 volume percent (B.) 1-chloro-2,2,2-trifluoroethyl difluoromethyl ether was added to several beakers, each containing a metal coupon completely coated with one of the following materials: Mil Spec 83282 hydraulic oil, Mil Spec 7808 engine oil, Krytox fluorocarbon grease and Mil Spec 81322 aviation grease. Two batches were subjected to 15 minute immersion with 15 mL of solvent mixture but one was exposed to ultrasonic vibrations and the other kept static. Afterwards, the coupons were removed and weighed for gravimetric analysis.
as §1, with “50” for “25”, “50” for “75”
Two batches were subjected to 15 minute immersion with 15 mL of solvent mixture but one was exposed to ultrasonic vibrations and the other kept static. Afterwards, the coupons were removed and weighed for gravimetric analysis.

[4] = Solvency with oxygen handling system contaminant; settings: in words, relative to CFC-113

| SMILES | AIT category [1] | ignition sensitivity to mechanical impact in liquid oxygen [2] | solvency of Mil-spec 7808 engine oil [3] | solvency of Mil-spec 83232 hydraulic fluid [3] | solvency performance with Jet Lube [4] | other results |
| --- | --- | --- | --- | --- | --- | --- |
| FC(F)OC(F)(F)C(F)Cl (stereo not drawn) [Compound C, 2-chloro-1,1,2-trifluoroethyl difluoromethyl ether] | B or C | passed | provides solvency | provides solvency | poor performance |  |
| CCOC(F)(F)C(F)(F)C(F)(F)C(F)(F)F [ethyl-perfluorobutyl ether] |  |  |  |  |  | solvency performance with Jet Lube ([4]; listed as CH3—CH2—O—(CF2)3—CF3): poor performance; solvency performance with Jet Lube ([4]; listed as ethyl nonafluorobutyl ether): inferior to that of CFC-113 |
| FC(F)(Cl)C(F)(Cl)Cl [CFC-113, 1,1,2-trichloro-1,2,2-trifluoroethane] |  |  |  |  |  | effect on Viton and Neoprene (Elastomer compatibility): significantly affected |
| COC(F)(F)C(F)(F)C(F)(F)C(F)(F)F [methyl perfluorobutyl ether] |  |  |  |  | poor performance |  |
| COC(C(F)(F)F)C(F)(F)F [E, methyl 2,2,2-trifluoroethyl-1-(trifluoromethyl)ether] | B or C | passed |  |  |  |  |
| FC(OC(F)(F)C(F)(F)C(F)(F)F)C(F)(F)F (stereo not drawn) [heptafluoropropyl 1,2,2,2-tetrafluoroethyl ether] |  |  |  |  | poor performance |  |
| FC(F)OC(Cl)C(F)(F)F (stereo not drawn) [Compound B, 1-chloro-2,2,2 trifluoroethyl difluoromethyl ether] | B or C | passed | provides solvency | provides solvency | poor performance |  |
| FC(F)(F)C(=CBr)C(F)(F)F [D, 1-bromo-2-(trifluoromethyl)-3,3,3-trifluoropropene] | B or C |  |  |  |  |  |
| C=CC(F)(Cl)C(F)(F)Br (stereo not drawn) [A, 4-bromo-3-chloro-3,4,4-trifluoro-1-butene] | B or C | does not pass | excellent solvency | excellent solvency |  | effect on Viton and Neoprene (Elastomer compatibility): significantly affected; ignition sensitivity to mechanical impact in liquid oxygen ([2]; listed as 4-bromo-3-chloro-3,4,4-trifluoro-1-butene): did not pass |
